Laboratory results published in publication PMC8515607 (ACS Omega, 2021).

Legend:
Format in all cases: cell-based
[1] = system: LoVo; assay: cells; conditions: Homo sapiens, 72 h, read-out: LoVo IC50 (nM)
From the text: (§1) The A549 and MCF7 cell lines were purchased from the European Collection of Authenticated Cell Cultures (ECACC, Salisbury, U.K., 86012804 and 86012803). The LoVo cell line was purchased from the American Type Culture Collection (CCL-229, ATCC, Manassas, VA), and LoVo/DX by courtesy of Prof. E. Borowski (Technical University of Gdańsk, Gdańsk, Poland). The BALB/3T3 cell line was purchased from the American Type Culture Collection (CCL-163, ATCC, Manassas, VA). All of the cell lines are maintained in the Institute of Immunology and Experimental Therapy (IIET), Wroclaw, Poland. […]
(§2) After 72 h of incubation with the tested compounds, the cells were fixed in situ by gently adding cold 50% trichloroacetic acid (TCA) (POCh, Poland) and were incubated at room temperature for 1 h. […] Absorbance of each solution was read at Synergy H4 Hybrid Multi-Mode Microplate Reader (BioTek Instruments) at the 540 nm wavelength.
(§3) IC50 values were calculated in Excel sheet using formulas adapted by Mateusz Psurski fromCheburator 0.4, Dmitry Nevozhay software (version 1.2.0 software by Dmitry Nevozhay, 2004–2014, http://www.cheburator.nevozhay.com, freely available) for each experiment.[58] […]

[2] = system: MCF-7; assay: cells; conditions: Homo sapiens, MCF7, 72 h, read-out: MCF-7 IC50 (nM)
From the text: as §1, §2, §3

[3] = system: BALB/3T3; assay: In vitro antiproliferative activity, SRB assay, normal fibroblasts BALB/3T3; conditions: Mus musculus, normal murine embryonic fibroblasts, 72 h, mean ± SD
From the text: as §1, §2, §3

## COc1cc2c(c(OC)c1OC)-c1ccc(OC)c(=O)cc1[C@@H](NC(C)=O)CC2 [Compound 1, Colchicine, reference compound]
[1]
  IC50: 20 ± 4.7 nM
[2]
  IC50: 17 ± 1.3 nM
[3]
  IC50: 44 ± 7 nM
